Test [1] concerns the target human CCR8 with extracellular domain 2 (ECL2) from human CCR4 (human). The test is described as follows: flow cytometry on ExpiHEK293 cells expressing the CCR8/CCR4 chimera, 50 nM antibody.
In test [2] the target is human CCR8 with extracellular domain 3 (ECL3) from human CCR4 (human). The test is described as above.

These are yes or no findings as the source states them, for the method shown. A result given as binding can be weak or reduced; the word gives no strength.

B1: HFB11-10 (antibody, V domains shown)
VH: EVQLVETGGGLVQPKGSLKLSCAASGFRFNTNAMNWVRQAPGKDLEWVARIRSKSNNYATYYADSVKDRFTISRDDSQSMLYLQMNNVKTEDTAMYYCVRGSDNNYYYAMDYWGQGTSVTVSS
VL: DIVMTQAAPSVPVTPGESVSISCRSSKSLLHSNGNTYLYWFLQRPGQSPQLLIYRMSNLASGVPDRFSGSGSGTAFTLRISRVEAEDVGVYYCMQHLEYPFTFGSGTKLEIK
In the case of B1, the binding result in test [1] and in test [2] was “binds” throughout.

B2: HFB11-19 (antibody, human IgG1, V domains shown)
VH: QVQLQQSGAELVKPGASVKLSCKASGYTFTDYIIHWVKQRSGQGLEWIGWFSPRNNYVKYNERFTDKATLTADKSSNTVYMELSSLTSEDSAVYFCSRHGRNSIGFAYWGQGTLVTVSA
VL: DIVMTQAAPSVPVTPGESVSISCRSSKSLLNSNGNTYLYWFLQRPGQSPQLLIYRMSNLASGVPDRFSGSGSGTAFTLRISRVEAEDVGVYYCMQHLEYPYTFGGGTKLEIK
Regarding B2, the binding result in test [1] and in test [2] was “binds” in each case.

B3: HFB11-3 (antibody, human IgG1, V domains shown)
VH: EVQLVESGGGLVQPQGSLKLSCAASGFSFNTYAMNWVRQAPGKGLQWVARIRSKSNNYATYYADSVKDRFTISRDDSESMLYLQMNNLKTEDAAMYYCVRGKDANYFYAMDYWGQGTSVTVSS
VL: DIVMTQAAPSVPVTPGESVSISCRSSKSLLHSNGNTYLYWFLQRPGQSPQLLIYRMSNLASGVPDRFSGSGSGTAFTLRISRVEAEDVGVYYCMQHLEYPFTFGAGTKLELK
With B3, the binding entry in test [1] and in test [2] was “binds” in each case.

B4: HFB11-5 (antibody, human IgG1, V domains shown)
VH: EVQLVESGGGLVQPRGSLKLSCTASGFSFNAYAMNWVRQAPGKGLEWVARIRTKSNNYATYYADSVKDRFTISRDDSESMLYLQMKNLKTEDTAMYYCVRGGYGNGGYYFDYWGQGTTLTVSS
VL: DIVMTQAAPSVTVTPGESASISCRSSKSLLHRNGNSYLYWFLQRPGQSPQLLIYRISNLASGVPDRFSGSGSGTAFTLRISRVEAEDVGVYYCMQHLEYPFTFGSGTKLEIK
Regarding B4, the binding entry in test [1] and in test [2] was “binds” in each case.

B5: HFB11-8 (antibody, human IgG1, V domains shown)
VH: EVQLVETGGGLVQPKGSLKLSCAASGFRFNTNAMNWVRQAPGKGLEWVARIRSKSNNYATHYVDSVKDRFTVSRDDSQSMLYLQMNNLKAEDTAMYYCVRGSDNNYYYAMDYWGQGTSVTVSS
VL: DIVMTQAAPSVPVTPGESVSISCRSSKSLLHSNGNTYLYWFLQRPGQSPQLLIYRMSNLASGVPDRFSGSGSGTSFTLRISRVEVEDVGVYYCMQHLEYPFTFGSGTKLEIK
For B5, the binding entry in test [1] and in test [2] was “binds” each time.

B6: HFB11-2 (antibody, human IgG1, V domains shown)
VH: EVQLVESGGGLVQPKGSLKLSCAASGFSFNTYAMNWVRQAPGKGLEWVARIRSKSNNYATYYADSVKDRFTISRDDSERMLYLQMNNLKTEDTAMYYCVRGGSYYSNHYFDYWGQGTTLTVSS
VL: DIVMTQAAPSVPVTPGESVSISCRSSKSLLHSNGNTYLYWFLQRPGQSPQLLIYQMSNLASGVPDRFSGSGSGTAFTLRISRVEAEDVGVYYCMQHLEYPFTFGAGTKLELK
With B6, the binding entry in test [1] and in test [2] was “binds” in each case.

B7: HFB11-21 (antibody, human IgG1, V domains shown)
VH: QVQLQQPGAELVKPGASVKLSCKASGYTFISYWMHWVKQRPGRGLEWIGRIDPNSGKTKYNEKFKTKATLTVDKSSSTAYMHLNSLTSDDSAVYYCAREGWGDYWGQGTTLTVSS
VL: DIVLTQSPASLAVSLGQRATISCRASESVDNYGISFMHWYQQKPGQPPRLLIYRASNLASGIPARFSGSGSSTDFTLTINPVETDDIATYYCQQSNKDPRTFGGGTKLEIK
Regarding B7, the binding entry in test [1] and in test [2] was “binds” throughout.

These data come from patent US20250019451A1.
